According to patent US5459077A, “Methods for modelling tertiary structures of biologically active ligands and for modelling agonists and antagonists thereto” (PepMetics, Inc., priority 1993, dated 1995):

Test: nanosecond time-resolved fluorescence decay of excited-state tyrosinate (long lifetime fluorescence, LLF)
Conditions: for LLF (long lifetime fluorescence): emission 350 nm
[1] = solvent propane-1,2-diol (propylene glycol)

Compound	% LLF (percent of conformer(s) giving rise to LLF) (solvent isopropanol) [%]	LLF (long lifetime fluorescence) (solvent isopropanol) [nanoseconds]	% LLF (percent of conformer(s) giving rise to LLF) [1] [%]	LLF (long lifetime fluorescence) [1] [nanoseconds]	percent LLF (aqueous SDS above critical micelle concentration) [%]	percent LLF (solvent trifluoroethanol) [%]
CC[C@H](C)[C@H](NC(=O)[C@H](Cc1ccc(O)cc1)NC(=O)[C@@H](NC(=O)[C@H](CCCNC(=N)N)NC(=O)CNC)C(C)C)C(=O)N[C@@H](Cc1c[nH]cn1)C(=O)N1CCC[C@@H]1C(=O)N[C@@H](Cc1ccccc1)C(=O)O [I]	12	8.5	8	10.2		
CC[C@H](C)[C@H](NC(=O)[C@@H]1CCCN1C(=O)[C@H](Cc1c[nH]cn1)NC(=O)[C@@H](NC(=O)[C@H](Cc1ccc(O)cc1)NC(=O)[C@@H](NC(=O)[C@H](CCCNC(=N)N)NC(=O)CNC)C(C)C)[C@@H](C)CC)C(=O)O [J]	20					
CC[C@H](C)[C@H](NC(=O)[C@H](Cc1ccc(O)cc1)NC(=O)[C@@H](NC(=O)[C@H](CCCNC(=N)N)NC(=O)CNC)C(C)C)C(=O)N[C@@H](Cc1c[nH]cn1)C(=O)N1CCC[C@H]1C(=O)N[C@@H](CC1CCCCC1)C(=O)O [D]		0	13	14.9		
CC[C@H](C)[C@H](NC(=O)[C@H](Cc1ccc(O)cc1)NC(=O)[C@@H](NC(=O)[C@H](CCCNC(=N)N)NC(=O)CNC)C(C)C)C(=O)N[C@@H](Cc1ccccc1)C(=O)N1CCC[C@H]1C(=O)N[C@@H](Cc1ccccc1)C(=O)O [C] (H-[Sar]RVYIFPF-OH)	11	9.3	11	18.8		
CC[C@H](C)[C@H](NC(=O)[C@H](Cc1ccc(O)cc1)NC(=O)[C@@H](NC(=O)[C@@H](N)CCCNC(=N)N)C(C)C)C(=O)N[C@@H](Cc1c[nH]cn1)C(=O)N1CCC[C@H]1C(=O)N[C@@H](Cc1ccccc1)C(=O)O [K]	14	10.2	10	7.4		
CC[C@H](C)[C@H](NC(=O)[C@H](Cc1ccc(O)cc1)NC(=O)[C@@H](NC(=O)[C@H](CCCNC(=N)N)NC(=O)[C@@H](N)CC(=O)O)C(C)C)C(=O)N[C@@H](Cc1c[nH]cn1)C(=O)N1CCC[C@H]1C(=O)N[C@@H](Cc1ccccc1)C(=O)O [Ligand A, Angiotensin II, reference compound]	79	15.5	19	20.8	14	19
CC[C@H](C)[C@@H]1NC(=O)[C@H](Cc2ccc(O)cc2)NC(=O)[C@@H](N)CSSC[C@@H](C(=O)N2CCC[C@H]2C(=O)N[C@@H](CC(C)C)C(=O)NCC(N)=O)NC(=O)[C@H](CC(N)=O)NC(=O)[C@H](CCC(N)=O)NC1=O [oxytocin, Oxytocin, reference compound]				18.5		
CC[C@H](C)[C@@H]1NC(=O)[C@H](Cc2ccc(O)cc2)NC(=O)[C@@H](N)CSSC[C@@H](C(=O)N2CCC[C@H]2C(=O)N[C@@H](CC(C)C)C(=O)NCC(N)=O)NC(=O)[C@H](C)NC(=O)[C@H](CCC(N)=O)NC1=O [[Ala^5]] (H-CYIQACPLG-NH2; disulfide 1-6)				7.6		
CC[C@H](C)[C@H](NC(=O)[C@H](Cc1ccc(O)cc1)NC(=O)[C@@H](NC(=O)[C@H](CCCNC(=N)N)NC(=O)CNC)C(C)C)C(=O)N[C@@H](C)C(=O)N1CCC[C@H]1C(=O)N[C@@H](Cc1ccccc1)C(=O)O [G] (H-[Sar]RVYIAPF-OH)		0	35	6.6		
CC[C@H](C)[C@H](NC(=O)[C@@H]1CCCN1C(=O)[C@H](Cc1c[nH]cn1)NC(=O)[C@@H](NC(=O)[C@H](Cc1ccc(O)cc1)NC(=O)[C@@H](NC(=O)[C@H](CCCNC(=N)N)NC(=O)CNC)C(C)C)[C@@H](C)CC)C(=O)O [Ligand J, [Sar^1 Ile^8]Angiotensin II, reference compound]		6.5		0		
[Sar^1 Tyr(Me)^4 ]Angiotensin II [reference compound]	79		19	20.8		
[Tyr(Me)^4 ]Angiotensin III [B, reference compound]	10		46	13.1		
CC[C@H](C)[C@H](NC(=O)[C@H](Cc1ccc(O)cc1)NC(=O)[C@@H](NC(=O)[C@@H](N)CCCNC(=N)N)C(C)C)C(=O)N[C@@H](Cc1c[nH]cn1)C(=O)N1CCC[C@H]1C(=O)N[C@@H](CC1CCCCC1)C(=O)O [E]		0	10	16.2		
CC[C@H](C)[C@H](NC(=O)[C@H](Cc1ccc(O)cc1)NC(=O)[C@@H](NC(=O)[C@H](CCCNC(=N)N)NC(=O)CNC)C(C)C)C(=O)N[C@@H](Cc1c[nH]cn1)C(=O)N1CCC[C@H]1C(=O)N[C@@H](Cc1ccccc1)C(N)=O [F]	3	11.6	6	9.2		

Bridge positions count the residues as written; N and C are the ends. Square brackets hold non-standard residues; d marks the D form. Peptide text beside a SMILES is read from it. Sar = CNCC(=O)O
